Some of the results follow. Residues, ends and D or L forms follow the SMILES beside them. *: point of attachment. Cbz = O=C(OCc1ccccc1)*
Tests used:
Assay in all cases: log2 fold change, soluble protein after heating vs DMSO (PISA); higher = thermal stabilisation; K562 cells, 10 uM, 30 min; active = over 0.2 and 3.5 SD of the protein, either way, in both replicates (recomputed)
[1] = compound: C1COCCN1CCN2C3=CC=CC=C3N=C2NC(=O)C4=CC(=CC=C4)[N+](=O)[O-] [IRAK-1-4 Inhibitor I]
Method in brief: (§1)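 Aliquots of K562 cells (2×10^6 cells/mL) treated with 10 μM compound for 30 min were heated for 3 min over 48°C-58°C. After pooling and extraction in PBS with 0.5% NP-40 at 4°C, soluble protein from a 21,000xg, 90 min spin was quantified by TMTpro 16plex LC-MS/MS with channel sums equalised. Thermal stability is expressed against control samples, from duplicates, as a log2 fold change.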

The chains behind the UniProt entries cited, without tags or fusion partners. Where a name states a change or a piece, a line headed by the entry shows the natural chain unless it says otherwise.
UniProt O60563, whole entry, looked up: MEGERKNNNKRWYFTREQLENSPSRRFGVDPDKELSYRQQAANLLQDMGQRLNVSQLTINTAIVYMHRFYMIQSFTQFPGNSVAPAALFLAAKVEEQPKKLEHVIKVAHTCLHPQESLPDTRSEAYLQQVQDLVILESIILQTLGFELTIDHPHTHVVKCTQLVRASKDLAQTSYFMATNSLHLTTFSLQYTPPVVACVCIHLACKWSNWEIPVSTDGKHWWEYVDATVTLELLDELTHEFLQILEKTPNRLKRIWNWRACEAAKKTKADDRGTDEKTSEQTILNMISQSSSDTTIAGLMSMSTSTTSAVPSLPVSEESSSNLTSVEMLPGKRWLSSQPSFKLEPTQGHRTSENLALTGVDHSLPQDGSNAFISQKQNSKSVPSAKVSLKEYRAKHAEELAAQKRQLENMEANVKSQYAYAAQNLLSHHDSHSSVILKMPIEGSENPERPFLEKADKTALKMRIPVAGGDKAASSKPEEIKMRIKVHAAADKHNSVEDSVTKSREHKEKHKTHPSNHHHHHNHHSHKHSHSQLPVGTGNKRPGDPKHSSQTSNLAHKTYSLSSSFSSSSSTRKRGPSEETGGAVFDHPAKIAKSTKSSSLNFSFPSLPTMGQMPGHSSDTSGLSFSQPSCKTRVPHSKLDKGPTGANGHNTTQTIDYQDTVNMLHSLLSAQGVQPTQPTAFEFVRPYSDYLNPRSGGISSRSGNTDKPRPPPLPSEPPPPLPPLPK
UniProt Q8TCZ2: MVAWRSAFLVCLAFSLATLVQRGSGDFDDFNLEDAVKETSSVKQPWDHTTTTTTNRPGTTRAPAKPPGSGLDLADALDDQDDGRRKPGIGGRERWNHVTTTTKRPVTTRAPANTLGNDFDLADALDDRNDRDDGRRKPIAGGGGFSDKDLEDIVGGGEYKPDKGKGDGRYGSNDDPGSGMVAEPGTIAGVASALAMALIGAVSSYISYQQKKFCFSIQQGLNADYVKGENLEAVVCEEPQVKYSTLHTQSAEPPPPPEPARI
UniProt Q2TAC2: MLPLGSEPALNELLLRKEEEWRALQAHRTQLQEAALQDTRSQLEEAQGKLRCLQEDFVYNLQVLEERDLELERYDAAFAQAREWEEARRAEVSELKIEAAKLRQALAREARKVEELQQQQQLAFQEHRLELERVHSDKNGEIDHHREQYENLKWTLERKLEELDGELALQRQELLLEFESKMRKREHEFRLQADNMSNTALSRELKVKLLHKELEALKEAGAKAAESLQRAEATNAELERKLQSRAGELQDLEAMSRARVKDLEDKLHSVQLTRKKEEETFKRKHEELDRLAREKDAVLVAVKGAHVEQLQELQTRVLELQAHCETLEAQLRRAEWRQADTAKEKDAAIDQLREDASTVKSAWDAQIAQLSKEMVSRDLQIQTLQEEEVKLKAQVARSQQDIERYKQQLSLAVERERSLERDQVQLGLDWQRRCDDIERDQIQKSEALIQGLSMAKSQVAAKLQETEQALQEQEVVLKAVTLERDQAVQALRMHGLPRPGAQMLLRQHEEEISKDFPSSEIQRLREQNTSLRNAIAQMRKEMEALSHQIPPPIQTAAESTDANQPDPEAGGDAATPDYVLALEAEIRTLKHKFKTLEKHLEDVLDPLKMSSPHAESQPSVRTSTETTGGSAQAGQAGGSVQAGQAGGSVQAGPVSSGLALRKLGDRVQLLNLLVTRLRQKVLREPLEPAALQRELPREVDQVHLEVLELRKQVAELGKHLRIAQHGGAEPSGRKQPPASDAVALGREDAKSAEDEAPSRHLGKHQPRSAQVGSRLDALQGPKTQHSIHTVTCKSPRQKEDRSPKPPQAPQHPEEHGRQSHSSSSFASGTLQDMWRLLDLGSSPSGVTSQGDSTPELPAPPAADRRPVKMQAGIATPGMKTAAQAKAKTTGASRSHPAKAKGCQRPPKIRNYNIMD
UniProt A6NHX0: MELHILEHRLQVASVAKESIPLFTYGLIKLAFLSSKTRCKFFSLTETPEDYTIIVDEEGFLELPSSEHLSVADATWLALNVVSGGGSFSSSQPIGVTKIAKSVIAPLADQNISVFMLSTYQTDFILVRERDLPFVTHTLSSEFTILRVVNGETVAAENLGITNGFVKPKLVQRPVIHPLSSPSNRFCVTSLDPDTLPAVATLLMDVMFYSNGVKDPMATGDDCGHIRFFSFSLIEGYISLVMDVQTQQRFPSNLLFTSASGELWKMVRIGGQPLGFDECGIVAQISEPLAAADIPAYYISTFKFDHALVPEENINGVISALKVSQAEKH
UniProt Q8N4S0: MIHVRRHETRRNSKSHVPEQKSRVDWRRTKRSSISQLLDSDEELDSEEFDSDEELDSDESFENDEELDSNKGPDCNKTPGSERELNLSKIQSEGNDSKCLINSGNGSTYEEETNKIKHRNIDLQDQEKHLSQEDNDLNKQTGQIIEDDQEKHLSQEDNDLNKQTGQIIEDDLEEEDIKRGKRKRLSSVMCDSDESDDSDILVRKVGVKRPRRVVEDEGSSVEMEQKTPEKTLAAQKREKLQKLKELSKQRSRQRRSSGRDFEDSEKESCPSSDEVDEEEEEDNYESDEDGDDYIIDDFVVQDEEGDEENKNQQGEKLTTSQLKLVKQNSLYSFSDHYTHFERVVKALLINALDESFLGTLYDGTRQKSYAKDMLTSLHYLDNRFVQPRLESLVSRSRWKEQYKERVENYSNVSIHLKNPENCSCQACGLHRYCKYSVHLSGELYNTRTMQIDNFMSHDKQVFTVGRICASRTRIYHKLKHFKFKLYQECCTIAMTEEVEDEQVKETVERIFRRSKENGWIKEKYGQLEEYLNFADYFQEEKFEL
UniProt Q7L3B6: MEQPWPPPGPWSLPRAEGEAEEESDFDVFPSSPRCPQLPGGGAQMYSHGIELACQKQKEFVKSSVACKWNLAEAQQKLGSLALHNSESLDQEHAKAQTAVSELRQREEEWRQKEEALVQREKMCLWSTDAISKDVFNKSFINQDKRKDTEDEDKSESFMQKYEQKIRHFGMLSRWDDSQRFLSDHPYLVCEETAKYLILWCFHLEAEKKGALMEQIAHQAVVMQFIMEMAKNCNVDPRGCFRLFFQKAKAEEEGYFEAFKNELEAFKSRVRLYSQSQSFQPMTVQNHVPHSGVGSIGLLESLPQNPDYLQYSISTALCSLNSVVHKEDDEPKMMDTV
UniProt P45973, whole entry, looked up: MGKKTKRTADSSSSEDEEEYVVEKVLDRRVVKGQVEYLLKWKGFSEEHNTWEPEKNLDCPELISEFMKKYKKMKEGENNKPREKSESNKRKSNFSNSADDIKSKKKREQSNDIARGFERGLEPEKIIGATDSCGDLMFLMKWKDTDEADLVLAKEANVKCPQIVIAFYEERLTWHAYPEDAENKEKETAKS
UniProt P35520: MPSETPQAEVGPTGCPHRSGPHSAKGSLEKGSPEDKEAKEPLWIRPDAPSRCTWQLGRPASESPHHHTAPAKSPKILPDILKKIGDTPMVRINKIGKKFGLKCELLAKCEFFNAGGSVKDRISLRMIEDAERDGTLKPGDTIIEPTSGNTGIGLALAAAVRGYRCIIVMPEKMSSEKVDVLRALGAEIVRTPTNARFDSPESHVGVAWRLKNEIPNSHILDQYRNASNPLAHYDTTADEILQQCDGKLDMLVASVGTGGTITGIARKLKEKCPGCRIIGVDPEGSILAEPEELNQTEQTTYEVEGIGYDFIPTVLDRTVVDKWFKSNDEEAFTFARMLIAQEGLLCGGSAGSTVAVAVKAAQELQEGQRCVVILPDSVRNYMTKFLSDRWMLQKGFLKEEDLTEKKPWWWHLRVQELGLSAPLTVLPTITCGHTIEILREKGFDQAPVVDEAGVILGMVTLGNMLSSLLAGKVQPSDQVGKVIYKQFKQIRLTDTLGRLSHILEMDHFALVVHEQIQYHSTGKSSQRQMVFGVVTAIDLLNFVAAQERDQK
UniProt P51636: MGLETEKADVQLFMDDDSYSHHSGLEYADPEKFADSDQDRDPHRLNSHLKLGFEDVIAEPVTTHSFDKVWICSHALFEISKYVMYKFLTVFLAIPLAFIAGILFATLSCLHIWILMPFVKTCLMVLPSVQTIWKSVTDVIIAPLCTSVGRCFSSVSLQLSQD
UniProt Q8N163, whole entry, looked up: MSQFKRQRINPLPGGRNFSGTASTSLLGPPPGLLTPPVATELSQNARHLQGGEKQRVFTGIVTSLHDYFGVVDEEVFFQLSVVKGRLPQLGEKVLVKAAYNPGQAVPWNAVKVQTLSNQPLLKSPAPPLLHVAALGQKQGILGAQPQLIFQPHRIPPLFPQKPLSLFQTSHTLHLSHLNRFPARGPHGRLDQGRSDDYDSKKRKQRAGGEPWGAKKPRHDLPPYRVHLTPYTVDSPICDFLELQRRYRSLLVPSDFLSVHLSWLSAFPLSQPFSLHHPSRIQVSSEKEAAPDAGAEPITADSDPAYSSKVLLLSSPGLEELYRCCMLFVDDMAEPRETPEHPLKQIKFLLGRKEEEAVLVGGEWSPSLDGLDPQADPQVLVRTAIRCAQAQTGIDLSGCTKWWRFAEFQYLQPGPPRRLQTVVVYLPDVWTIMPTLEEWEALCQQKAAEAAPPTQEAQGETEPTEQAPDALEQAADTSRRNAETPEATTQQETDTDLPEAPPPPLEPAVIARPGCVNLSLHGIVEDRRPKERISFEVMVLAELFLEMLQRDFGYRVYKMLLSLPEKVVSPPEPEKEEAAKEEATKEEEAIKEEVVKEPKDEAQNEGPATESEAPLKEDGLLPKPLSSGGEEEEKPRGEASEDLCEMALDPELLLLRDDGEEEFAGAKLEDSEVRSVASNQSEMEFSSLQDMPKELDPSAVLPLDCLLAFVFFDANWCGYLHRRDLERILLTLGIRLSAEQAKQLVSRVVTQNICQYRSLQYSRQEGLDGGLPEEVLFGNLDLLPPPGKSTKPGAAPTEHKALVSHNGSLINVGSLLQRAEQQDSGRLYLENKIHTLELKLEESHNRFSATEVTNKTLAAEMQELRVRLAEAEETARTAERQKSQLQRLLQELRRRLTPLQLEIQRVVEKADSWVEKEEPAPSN
UniProt Q8N7R7: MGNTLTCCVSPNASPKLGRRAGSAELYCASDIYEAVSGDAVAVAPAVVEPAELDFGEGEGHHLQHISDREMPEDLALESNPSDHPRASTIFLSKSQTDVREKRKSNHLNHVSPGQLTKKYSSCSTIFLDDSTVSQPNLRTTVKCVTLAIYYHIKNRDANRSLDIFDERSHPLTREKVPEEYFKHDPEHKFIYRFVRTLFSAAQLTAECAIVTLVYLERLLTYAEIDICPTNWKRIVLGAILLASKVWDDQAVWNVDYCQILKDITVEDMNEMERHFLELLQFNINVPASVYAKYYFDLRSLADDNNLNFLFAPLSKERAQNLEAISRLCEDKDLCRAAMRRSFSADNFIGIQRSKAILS
UniProt A6NKD9: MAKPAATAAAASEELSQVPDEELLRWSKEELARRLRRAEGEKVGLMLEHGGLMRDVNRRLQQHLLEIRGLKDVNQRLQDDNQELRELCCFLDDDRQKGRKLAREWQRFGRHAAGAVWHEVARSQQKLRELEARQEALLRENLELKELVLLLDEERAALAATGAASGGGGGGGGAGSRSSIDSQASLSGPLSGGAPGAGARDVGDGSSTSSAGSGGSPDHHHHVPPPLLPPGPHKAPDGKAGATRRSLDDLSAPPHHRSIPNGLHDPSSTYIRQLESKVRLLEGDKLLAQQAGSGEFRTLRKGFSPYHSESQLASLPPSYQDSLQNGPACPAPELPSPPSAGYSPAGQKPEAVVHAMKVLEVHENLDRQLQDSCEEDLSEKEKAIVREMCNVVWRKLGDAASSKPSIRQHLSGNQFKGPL

[2] = compound: C=CC(=O)N1CCC[C@@H](n2nc(-c3ccc(Oc4ccccc4)cc3)c3c(N)ncnc32)C1 [ibrutinib]
Method in brief: as §1

[3] = compound: CC(=O)c1cnc2ccc(-c3cc(Cl)c(O)c(Cl)c3)nc2c1N[C@H]1CC[C@H](CN(C)C)CC1
Method in brief: as §1

[4] = compound: CC(C)(C)Cn1c(N)nc2ccc(-c3[nH]c(C(C)(C)C)nc3-c3ccc(F)cc3)nc21 [ralimetinib]
Method in brief: as §1

[5] = compound: CC(C)(O)CC(=O)NCCn1ccc2ncnc(Nc3ccc(Oc4cccc(C(F)(F)F)c4)c(Cl)c3)c21
Method in brief: as §1

[6] = compound: CC(C)C1=C2N=C(C=C(N2N=C1)NCC3=CC=CC=C3)NCCCCCCN
Method in brief: as §1

[7] = compound: CC(C)C[C@@H](C=O)NC(=O)[C@H](CC(C)C)NC(=O)[C@H](CC(C)C)NC(=O)OCc1ccccc1
Method in brief: as §1

[8] = compound: CC(C)N(C[C@H]1O[C@@H](n2cnc3c(N)ncnc32)[C@H](O)[C@@H]1O)[C@H]1C[C@@H](CCc2nc3cc(C(C)(C)C)ccc3[nH]2)C1 [pinometostat]
Method in brief: as §1

[9] = compound: CC1=C(C2=C(C=C1)C(=O)C3=CC=CC=C3N2CCCN)C
Method in brief: as §1

[10] = compound: CC1=C(C=C(C=C1)NC(=O)C2=CC(=CC=C2)C(C)(C)C#N)NC3=CC4=C(C=C3)N=CN(C4=O)C
Method in brief: as §1

[11] = compound: CC1=C(C=C(C=C1)NC(=O)C2=CC(=CC=C2)N(C)C)NC(=O)C3=CC=C(C=C3)O
Method in brief: as §1

[12] = compound: CC1=CC=C(C=C1)SC2=C3C=C(SC3=CN=C2)C(=O)N
Method in brief: as §1

[13] = compound: CC1=NC(=CC=C1)C2=C(N=C(N2)C(C)(C)C)C3=CC4=NC=CN=C4C=C3
Method in brief: as §1

[14] = compound: CCCCN(Cc1ccc(C(=O)NO)cc1)C(=O)Nc1ccccc1 [Nexturastat A]
Method in brief: as §1

[15] = compound: CCCS(=O)(=O)Nc1ccc(F)c(C(=O)c2c[nH]c3ncc(-c4ccc(Cl)cc4)cc23)c1F [vemurafenib]
Method in brief: as §1

[16] = compound: CCCS(=O)(=O)Nc1ccc(F)c(C(=O)c2c[nH]c3ncc(Cl)cc23)c1F
Method in brief: as §1

[17] = compound: CCCc1cc(C)[nH]c(=O)c1CNC(=O)c1cc(-c2ccnc(N3CCN(C)CC3)c2)cc2c1cnn2C(C)C
Method in brief: as §1

[18] = compound: CCN(CC)Cc1ccc2cc(COC(=O)Nc3ccc(C(=O)NO)cc3)ccc2c1 [givinostat]
Method in brief: as §1

[19] = compound: CCN(CCCOc1ccc2c(Nc3cc(CC(=O)Nc4cccc(F)c4)[nH]n3)ncnc2c1)CCOP(=O)(O)O [barasertib]
Method in brief: as §1

[20] = compound: CC1=C(C(CC(=O)N1)C2=CC=C(C=C2)C(F)(F)F)C(=O)NC3=C(C=C4C(=C3)C=NN4)F
Method in brief: as §1

Measured: log2 fold change

CCNT1 (UniProt O60563)
active: [3] -0.603 | [6] -0.375
inactive: [1] -0.004 | [2] 0.001 | [4] 0.054 | [5] 0.042 | [7] 0.105 | [8] 0.213 | [9] -0.112 | [10] -0.033 | [11] -0.018 | [12] -0.02 | [13] 0.005 | [14] 0.218 | [15] 0.027 | [16] 0.007 | [17] 0.023 | [18] 0.022 | [19] 0.022

CD99L2 isoform 5 (UniProt Q8TCZ2)
inactive: [1] 0.028 | [2] -0.04 | [5] -0.015 | [6] 0.216 | [8] -0.019 | [20] -0.045 | [9] -0.335 | [12] -0.043 | [13] -0.139 | [14] -0.137 | [15] -0.046 | [16] -0.227 | [17] 0.027 | [18] 0.018 | [19] 0.002

CCDC57 (UniProt Q2TAC2)
inactive: [1] 0.067 | [2] -0.021 | [4] 0.005 | [5] -0.007 | [6] 0.041 | [7] 0.05 | [8] -0.04 | [9] 0.012 | [10] 0.004 | [11] 0.02 | [12] 0.032 | [13] -0.01 | [14] -0.049 | [15] 0 | [16] 0.013 | [17] -0.047 | [18] 0.027 | [19] 0.015

CASTOR2 (UniProt A6NHX0)
active: [16] -0.465
inactive: [1] 0.078 | [2] 0.046 | [3] 0.008 | [4] -0.006 | [5] 0.016 | [6] 0.031 | [7] 0.046 | [8] -0.013 | [9] 0.019 | [10] -0.015 | [11] -0.01 | [12] 0.037 | [13] 0.033 | [14] -0.085 | [15] 0.046 | [17] -0.021 | [18] 0.041 | [19] 0.01

CCDC82 (UniProt Q8N4S0)
inactive: [1] -0.041 | [2] 0.022 | [3] -0.07 | [4] -0.023 | [5] 0.012 | [6] 0 | [7] 0.028 | [8] -0.019 | [11] -0.027 | [12] -0.007 | [13] -0.103 | [14] 0.043 | [15] 0.015 | [16] 0.055 | [17] -0.035 | [18] -0.074 | [19] 0.073
active: [9] -0.65

CDC37L1 (UniProt Q7L3B6)
inactive: [1] 0.004 | [2] -0.018 | [3] -0.012 | [4] -0.059 | [5] -0.118 | [6] -0.004 | [7] 0 | [8] -0.015 | [9] -0.281 | [10] 0.035 | [11] 0.001 | [12] -0.054 | [13] -0.021 | [14] -0.028 | [15] -0.008 | [16] 0.019 | [17] 0.063 | [18] 0.044 | [19] 0.063

CBX5 (UniProt P45973)
inactive: [1] -0.076 | [2] 0.002 | [3] -0.102 | [4] -0.002 | [5] 0.056 | [6] -0.067 | [7] -0.001 | [8] -0.058 | [10] 0.051 | [11] 0.029 | [12] 0.073 | [13] 0.113 | [14] 0.027 | [15] 0.045 | [16] 0.085 | [17] -0.051 | [18] 0.043 | [19] -0.05
active: [9] -0.545

CBS (UniProt P35520)
inactive: [1] 0.044 | [2] -0.007 | [3] 0.008 | [4] -0.01 | [5] 0.027 | [6] 0.036 | [7] -0.013 | [8] -0.048 | [9] 0.001 | [10] 0.031 | [11] -0.001 | [12] 0.004 | [13] 0.019 | [14] -0.08 | [15] -0.021 | [16] -0.004 | [17] -0.016 | [18] -0.135 | [19] 0.02

CAV2 (UniProt P51636)
inactive: [1] -0.165 | [2] 0.105 | [3] 0.025 | [6] -0.073 | [8] 0.178 | [9] 0.005 | [10] -0.164 | [12] -0.018 | [13] 0.078 | [16] 0.087 | [17] 0.001 | [18] 0.137 | [19] 0.175

CCAR2 isoform 2 (UniProt Q8N163)
inactive: [1] -0.111 | [2] -0.061 | [3] -0.037 | [4] 0.027 | [5] -0.222 | [7] -0.004 | [8] -0.039 | [9] -0.252 | [10] 0.032 | [11] -0.048 | [12] -0.017 | [13] 0.001 | [14] 0 | [15] 0.042 | [16] 0.05 | [17] 0.28 | [18] 0.144 | [19] 0.026
active: [6] -0.477

CCNYL1 (UniProt Q8N7R7)
inactive: [1] 0.051 | [2] 0.261 | [3] -0.129 | [5] -0.001 | [6] -0.077 | [8] 0.033 | [20] -0.02 | [10] 0.056 | [13] 0.111 | [14] 0.119 | [17] -0.004 | [18] -0.007 | [19] -0.03

CCDC85C (UniProt A6NKD9)
inactive: [1] 0.045 | [2] -0.056 | [3] 0.005 | [4] -0.076 | [5] -0.238 | [7] 0.031 | [8] 0.149 | [9] -0.067 | [10] 0.105 | [11] -0.045 | [12] 0.113 | [13] 0.058 | [14] 0.065 | [15] -0.174 | [16] -0.468 | [17] -0.162 | [19] 0.036

Reference: the supplement of paper PMC10849652
